The assay has as its target Cortactin (UniProt Q14247). Nature of the assay: co-IP; exogenous co-immunoprecipitation in HEK-293T cells (legend: T24 cells); control cells and cells with TCF7L2 knocked down (binding attenuated after knock-down); bait not told.

The chains behind the UniProt entries cited, without tags or fusion partners.
UniProt Q14247: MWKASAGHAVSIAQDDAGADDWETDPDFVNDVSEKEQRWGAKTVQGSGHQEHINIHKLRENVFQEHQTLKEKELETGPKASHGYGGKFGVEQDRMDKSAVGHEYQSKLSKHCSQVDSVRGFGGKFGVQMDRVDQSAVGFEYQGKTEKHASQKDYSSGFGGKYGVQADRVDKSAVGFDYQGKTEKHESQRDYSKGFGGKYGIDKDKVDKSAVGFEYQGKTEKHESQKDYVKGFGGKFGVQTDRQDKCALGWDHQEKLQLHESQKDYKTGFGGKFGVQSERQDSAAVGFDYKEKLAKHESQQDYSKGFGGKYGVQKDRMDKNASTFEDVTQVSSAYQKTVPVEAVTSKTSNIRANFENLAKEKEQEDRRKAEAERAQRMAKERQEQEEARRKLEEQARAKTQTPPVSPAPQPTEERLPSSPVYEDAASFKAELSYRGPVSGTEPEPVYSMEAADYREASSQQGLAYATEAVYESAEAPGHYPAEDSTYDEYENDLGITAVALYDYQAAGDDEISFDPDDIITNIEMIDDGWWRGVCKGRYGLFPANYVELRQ
UniProt P23528: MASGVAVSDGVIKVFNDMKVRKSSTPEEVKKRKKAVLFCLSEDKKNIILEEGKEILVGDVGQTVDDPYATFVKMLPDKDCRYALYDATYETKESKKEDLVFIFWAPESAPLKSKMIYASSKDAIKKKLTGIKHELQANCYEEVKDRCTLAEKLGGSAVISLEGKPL

These are yes or no findings as the source states them, for the method shown. Binding seen in cells or lysates may run through a third protein. Some binding calls cover weakened binding; strength is not graded here.

Cofilin1 (from UniProt P23528 1-166): the binding result is “binds”.

The values are drawn from PMC13059783.
